Measurements reported in PMC4207488.
No constants are given. Whether binding was seen depends on the method and setting. For some assays here: In cells and extracts the contact can be indirect. Some binding calls cover weakened binding; strength is not graded here. For some assays here: Tags and fused reporters may be left off the sequences shown. Blank lines part the entries; values can stand above or below the substance they belong to.

Sequences of proteins named here, by UniProt entry; tags and fusion partners are left off.
UniProt P38902: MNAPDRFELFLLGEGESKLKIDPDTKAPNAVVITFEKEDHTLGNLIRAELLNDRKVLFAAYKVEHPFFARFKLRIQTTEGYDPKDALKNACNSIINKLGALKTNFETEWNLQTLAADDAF
UniProt Q03940: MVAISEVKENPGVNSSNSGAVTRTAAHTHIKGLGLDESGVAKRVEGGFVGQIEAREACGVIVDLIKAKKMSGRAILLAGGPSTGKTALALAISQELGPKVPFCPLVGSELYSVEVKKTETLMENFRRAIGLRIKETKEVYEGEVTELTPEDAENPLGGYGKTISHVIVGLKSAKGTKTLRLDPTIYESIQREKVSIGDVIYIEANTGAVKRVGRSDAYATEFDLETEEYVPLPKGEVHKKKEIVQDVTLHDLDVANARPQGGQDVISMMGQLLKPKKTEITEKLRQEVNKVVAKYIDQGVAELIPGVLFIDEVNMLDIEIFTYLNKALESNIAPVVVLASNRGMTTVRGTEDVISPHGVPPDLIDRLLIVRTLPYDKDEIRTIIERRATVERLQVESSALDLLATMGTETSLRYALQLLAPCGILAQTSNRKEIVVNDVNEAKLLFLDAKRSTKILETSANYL
UniProt P25655: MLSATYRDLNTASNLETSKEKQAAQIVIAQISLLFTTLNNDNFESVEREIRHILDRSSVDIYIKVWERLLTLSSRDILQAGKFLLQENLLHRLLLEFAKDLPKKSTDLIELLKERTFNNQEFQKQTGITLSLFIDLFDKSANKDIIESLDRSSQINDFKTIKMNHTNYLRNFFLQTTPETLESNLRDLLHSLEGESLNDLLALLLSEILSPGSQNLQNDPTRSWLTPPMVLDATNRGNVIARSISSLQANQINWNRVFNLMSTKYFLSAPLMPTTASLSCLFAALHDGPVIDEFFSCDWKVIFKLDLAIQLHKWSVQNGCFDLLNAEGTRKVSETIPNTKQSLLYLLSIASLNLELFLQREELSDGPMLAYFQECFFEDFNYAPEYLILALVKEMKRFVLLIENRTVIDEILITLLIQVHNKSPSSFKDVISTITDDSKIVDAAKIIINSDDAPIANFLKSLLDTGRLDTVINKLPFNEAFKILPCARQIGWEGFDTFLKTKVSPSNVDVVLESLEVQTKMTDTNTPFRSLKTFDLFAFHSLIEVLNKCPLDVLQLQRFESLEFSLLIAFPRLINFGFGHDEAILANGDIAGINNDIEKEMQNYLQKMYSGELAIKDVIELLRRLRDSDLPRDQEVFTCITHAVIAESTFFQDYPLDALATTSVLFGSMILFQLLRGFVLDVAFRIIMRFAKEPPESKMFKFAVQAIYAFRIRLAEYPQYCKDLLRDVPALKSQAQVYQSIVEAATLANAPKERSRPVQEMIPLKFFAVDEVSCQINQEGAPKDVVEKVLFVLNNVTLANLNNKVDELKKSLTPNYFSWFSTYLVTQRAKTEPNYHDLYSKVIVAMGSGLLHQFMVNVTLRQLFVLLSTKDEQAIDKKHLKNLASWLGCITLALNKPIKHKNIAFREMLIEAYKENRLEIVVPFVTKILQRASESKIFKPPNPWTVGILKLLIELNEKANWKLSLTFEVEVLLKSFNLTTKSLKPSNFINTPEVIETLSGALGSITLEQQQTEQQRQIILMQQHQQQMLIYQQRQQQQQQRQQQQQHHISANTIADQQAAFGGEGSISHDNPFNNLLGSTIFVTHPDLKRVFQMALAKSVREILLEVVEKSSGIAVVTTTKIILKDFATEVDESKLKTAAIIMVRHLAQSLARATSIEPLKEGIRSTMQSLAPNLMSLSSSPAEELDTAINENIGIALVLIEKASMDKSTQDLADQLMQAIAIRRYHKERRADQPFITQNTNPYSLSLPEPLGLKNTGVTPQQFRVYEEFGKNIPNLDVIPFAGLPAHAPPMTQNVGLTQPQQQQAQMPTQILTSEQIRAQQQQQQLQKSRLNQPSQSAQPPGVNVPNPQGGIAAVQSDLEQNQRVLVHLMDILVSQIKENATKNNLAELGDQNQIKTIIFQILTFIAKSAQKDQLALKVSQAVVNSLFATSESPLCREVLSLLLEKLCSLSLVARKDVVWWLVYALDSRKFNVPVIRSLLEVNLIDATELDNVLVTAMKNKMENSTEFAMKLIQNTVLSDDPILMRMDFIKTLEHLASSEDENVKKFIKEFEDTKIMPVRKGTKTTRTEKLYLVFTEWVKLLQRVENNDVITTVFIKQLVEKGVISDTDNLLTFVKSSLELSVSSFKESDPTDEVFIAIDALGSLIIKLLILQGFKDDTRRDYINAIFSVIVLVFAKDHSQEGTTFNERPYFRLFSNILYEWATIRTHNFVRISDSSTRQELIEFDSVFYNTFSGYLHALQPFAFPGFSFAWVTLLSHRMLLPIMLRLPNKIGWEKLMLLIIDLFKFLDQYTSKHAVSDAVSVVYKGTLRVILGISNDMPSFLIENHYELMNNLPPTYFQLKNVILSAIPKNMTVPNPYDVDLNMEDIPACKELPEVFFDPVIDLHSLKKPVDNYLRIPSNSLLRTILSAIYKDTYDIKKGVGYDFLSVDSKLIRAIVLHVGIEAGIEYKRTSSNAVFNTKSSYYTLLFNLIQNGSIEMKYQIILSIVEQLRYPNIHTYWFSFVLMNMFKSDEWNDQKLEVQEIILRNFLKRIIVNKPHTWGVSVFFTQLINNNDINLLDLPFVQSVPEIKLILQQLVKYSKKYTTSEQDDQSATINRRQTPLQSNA
UniProt P32497: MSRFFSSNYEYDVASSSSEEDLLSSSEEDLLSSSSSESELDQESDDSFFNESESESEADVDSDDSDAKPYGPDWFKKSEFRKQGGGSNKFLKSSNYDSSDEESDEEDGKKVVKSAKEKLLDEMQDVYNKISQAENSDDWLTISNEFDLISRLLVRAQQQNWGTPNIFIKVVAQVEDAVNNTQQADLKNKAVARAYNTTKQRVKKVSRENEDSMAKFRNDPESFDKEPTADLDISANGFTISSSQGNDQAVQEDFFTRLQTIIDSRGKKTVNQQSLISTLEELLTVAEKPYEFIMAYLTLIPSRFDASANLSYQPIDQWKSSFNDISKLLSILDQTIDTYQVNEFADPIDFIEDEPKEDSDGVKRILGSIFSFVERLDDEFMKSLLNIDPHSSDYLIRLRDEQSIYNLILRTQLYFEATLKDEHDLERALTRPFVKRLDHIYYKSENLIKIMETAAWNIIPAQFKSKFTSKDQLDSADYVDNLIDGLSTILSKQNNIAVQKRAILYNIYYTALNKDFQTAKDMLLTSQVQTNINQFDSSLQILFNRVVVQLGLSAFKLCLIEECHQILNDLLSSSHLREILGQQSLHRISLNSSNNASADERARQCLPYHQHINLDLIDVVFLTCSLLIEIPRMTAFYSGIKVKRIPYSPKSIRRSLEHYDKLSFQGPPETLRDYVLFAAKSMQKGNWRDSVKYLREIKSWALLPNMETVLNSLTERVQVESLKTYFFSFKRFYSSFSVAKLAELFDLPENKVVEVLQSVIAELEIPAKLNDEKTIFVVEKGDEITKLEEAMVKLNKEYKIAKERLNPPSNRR
UniProt P04050: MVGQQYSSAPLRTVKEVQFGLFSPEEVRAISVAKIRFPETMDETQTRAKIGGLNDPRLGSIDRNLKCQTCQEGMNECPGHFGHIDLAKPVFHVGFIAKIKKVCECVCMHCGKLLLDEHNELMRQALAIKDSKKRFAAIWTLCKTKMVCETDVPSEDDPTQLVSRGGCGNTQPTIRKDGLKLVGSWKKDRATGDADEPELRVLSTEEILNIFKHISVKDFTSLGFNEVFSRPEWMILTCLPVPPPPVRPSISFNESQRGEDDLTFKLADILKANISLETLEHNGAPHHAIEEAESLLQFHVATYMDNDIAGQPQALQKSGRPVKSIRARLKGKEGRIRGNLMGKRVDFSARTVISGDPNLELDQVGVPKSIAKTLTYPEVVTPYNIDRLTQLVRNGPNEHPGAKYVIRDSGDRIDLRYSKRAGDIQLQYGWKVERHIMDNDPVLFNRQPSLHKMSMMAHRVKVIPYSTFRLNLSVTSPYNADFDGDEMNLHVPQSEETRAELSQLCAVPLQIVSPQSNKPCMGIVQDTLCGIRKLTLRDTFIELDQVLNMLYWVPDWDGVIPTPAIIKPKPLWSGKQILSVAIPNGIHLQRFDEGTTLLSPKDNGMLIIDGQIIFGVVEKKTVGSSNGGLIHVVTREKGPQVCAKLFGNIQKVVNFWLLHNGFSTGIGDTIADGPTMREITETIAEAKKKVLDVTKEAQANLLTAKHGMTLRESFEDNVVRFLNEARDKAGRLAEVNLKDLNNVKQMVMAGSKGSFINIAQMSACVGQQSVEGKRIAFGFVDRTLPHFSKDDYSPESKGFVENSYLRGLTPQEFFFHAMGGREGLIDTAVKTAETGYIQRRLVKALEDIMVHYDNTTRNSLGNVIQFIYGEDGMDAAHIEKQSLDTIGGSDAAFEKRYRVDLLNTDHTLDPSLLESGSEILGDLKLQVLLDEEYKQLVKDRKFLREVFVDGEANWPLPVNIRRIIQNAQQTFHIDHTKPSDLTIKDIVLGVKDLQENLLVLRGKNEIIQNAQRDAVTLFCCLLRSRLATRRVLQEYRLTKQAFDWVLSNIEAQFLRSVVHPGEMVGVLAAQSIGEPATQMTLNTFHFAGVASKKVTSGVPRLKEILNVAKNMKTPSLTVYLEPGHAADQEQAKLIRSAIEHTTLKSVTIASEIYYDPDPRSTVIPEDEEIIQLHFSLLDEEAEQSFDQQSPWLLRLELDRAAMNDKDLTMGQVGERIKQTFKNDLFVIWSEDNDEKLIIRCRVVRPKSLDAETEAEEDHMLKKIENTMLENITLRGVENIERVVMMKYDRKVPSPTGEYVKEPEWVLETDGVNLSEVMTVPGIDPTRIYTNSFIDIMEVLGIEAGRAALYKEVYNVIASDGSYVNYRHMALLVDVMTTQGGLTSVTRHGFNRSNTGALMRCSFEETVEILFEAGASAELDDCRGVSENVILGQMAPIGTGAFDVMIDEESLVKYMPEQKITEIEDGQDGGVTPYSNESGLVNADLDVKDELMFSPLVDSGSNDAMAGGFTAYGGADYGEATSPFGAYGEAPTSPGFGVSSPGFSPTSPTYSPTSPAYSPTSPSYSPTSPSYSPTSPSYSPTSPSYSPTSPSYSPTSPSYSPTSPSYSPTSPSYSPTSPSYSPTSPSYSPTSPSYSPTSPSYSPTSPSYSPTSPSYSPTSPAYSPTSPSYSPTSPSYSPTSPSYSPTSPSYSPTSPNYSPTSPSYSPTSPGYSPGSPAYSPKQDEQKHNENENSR
UniProt P04456: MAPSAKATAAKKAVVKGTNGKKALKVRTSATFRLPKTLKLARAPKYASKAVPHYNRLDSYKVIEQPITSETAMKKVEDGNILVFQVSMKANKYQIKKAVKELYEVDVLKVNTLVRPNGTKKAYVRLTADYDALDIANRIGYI
UniProt P06103: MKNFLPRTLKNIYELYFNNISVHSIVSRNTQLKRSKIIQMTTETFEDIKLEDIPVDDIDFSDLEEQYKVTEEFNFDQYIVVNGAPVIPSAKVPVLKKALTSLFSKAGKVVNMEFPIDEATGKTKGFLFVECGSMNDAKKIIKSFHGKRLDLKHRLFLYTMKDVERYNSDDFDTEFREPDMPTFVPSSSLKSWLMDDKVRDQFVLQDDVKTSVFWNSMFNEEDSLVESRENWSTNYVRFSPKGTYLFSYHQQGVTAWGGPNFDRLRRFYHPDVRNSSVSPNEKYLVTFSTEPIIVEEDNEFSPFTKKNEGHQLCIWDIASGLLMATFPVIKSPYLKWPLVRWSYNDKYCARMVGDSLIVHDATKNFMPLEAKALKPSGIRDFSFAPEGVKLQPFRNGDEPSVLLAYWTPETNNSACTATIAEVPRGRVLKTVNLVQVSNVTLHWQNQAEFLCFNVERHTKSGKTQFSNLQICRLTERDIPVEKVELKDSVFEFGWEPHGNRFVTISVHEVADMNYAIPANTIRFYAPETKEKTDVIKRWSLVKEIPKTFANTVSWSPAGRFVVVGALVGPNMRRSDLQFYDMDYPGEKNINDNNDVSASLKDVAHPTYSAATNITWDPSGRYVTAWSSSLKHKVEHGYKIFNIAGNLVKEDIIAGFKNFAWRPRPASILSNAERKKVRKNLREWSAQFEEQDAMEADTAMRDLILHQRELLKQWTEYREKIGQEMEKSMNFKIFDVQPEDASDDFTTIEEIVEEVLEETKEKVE

How the values were obtained:
[1] = molecular target: T1, LexA-Rpb7 (S. cerevisiae) (UniProt P34087); experiment: two-hybrid; LexA fusion as bait (pLex202), B42 fusions as preys (pJG4-5), reporter strain MY290; serial dilutions spotted on medium selective for the plasmids and indicative of an interaction (-L)
T1 sequence: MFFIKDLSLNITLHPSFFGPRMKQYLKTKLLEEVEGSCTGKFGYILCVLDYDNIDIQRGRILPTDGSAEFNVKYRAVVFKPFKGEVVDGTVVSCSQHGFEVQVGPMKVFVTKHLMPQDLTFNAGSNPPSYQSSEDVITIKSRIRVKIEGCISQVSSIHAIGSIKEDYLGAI

[2] = molecular target: T2, LexA-Rpb4 (S. cerevisiae) (UniProt P20433); experiment: as above
T2 sequence: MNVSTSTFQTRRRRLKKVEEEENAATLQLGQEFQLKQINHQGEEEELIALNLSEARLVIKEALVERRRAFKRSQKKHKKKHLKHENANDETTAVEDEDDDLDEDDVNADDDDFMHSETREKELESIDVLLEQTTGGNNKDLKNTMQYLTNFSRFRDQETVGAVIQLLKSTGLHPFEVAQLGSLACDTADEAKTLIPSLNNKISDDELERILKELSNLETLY

Rpb11-TT (S. cerevisiae) = Rpb11-TT (S. cerevisiae) (UniProt P38902); experiment: co-IP; single-step affinity purification of a Tap-tagged RNA Pol II subunit from 4 mg of total protein of wild-type or not5Δ cells; eluate on Native PAGE 3-12% Bis-Tris gels or SDS-PAGE, western blot with anti-CBP or anti-Rpb1
Rvb1-TT (S. cerevisiae) = Rvb1-TT (S. cerevisiae) (UniProt Q03940); experiment: co-IP; Tap-tagged protein captured from 4 mg of total yeast extract on IgG sepharose in IP buffer (40 mM HEPES-KOH pH 8.0, 100 mM KCl, 150 mM potassium acetate, 1 mM EDTA, 10% glycerol), eluted with TEV protease, SDS-PAGE and western blot; extracts of wild-type or not5Δ cells, with RNaseA where indicated
[3] = molecular target: T3, Tap-tagged Pih1 (S. cerevisiae) (UniProt P38768); experiment: as above
T3 sequence: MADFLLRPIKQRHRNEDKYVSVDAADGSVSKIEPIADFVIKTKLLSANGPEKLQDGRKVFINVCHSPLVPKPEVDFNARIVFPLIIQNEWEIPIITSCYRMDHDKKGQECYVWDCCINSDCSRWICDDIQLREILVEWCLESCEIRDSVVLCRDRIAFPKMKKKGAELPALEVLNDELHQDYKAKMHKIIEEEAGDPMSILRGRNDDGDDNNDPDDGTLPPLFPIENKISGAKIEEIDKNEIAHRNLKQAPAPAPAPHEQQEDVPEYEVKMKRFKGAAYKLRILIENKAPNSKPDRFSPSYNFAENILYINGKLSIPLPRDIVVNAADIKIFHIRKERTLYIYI

Rvb2-TT (S. cerevisiae) = Rvb2-TT (S. cerevisiae) (UniProt Q12464); experiment: as above
Rpb2-TT (S. cerevisiae) = Rpb2-TT (S. cerevisiae) (UniProt P08518); experiment: as above
Not1-TT (S. cerevisiae) = Not1-TT (S. cerevisiae) (UniProt P25655); experiment: as above

binding [1]: binds | binding [2]: binds
Substance: B42-Nip1 (from UniProt P32497 1-812)

binding (Rpb11-TT (S. cerevisiae)): binds | binding (Rvb1-TT (S. cerevisiae)): binds | binding [3]: binds | binding (Rvb2-TT (S. cerevisiae)): binds
Substance: Rpb1 (from UniProt P04050 1-1733)

binding (Rpb2-TT (S. cerevisiae)): binds
Substance: HA-tagged Rpl25 (from UniProt P04456 1-142)

binding (Not1-TT (S. cerevisiae)): binds
Substance: HA-tagged Prt1 (from UniProt P06103 1-763)
